Data as given in patent US20250326855A1 (GO THERAPEUTICS, published 2025).

Molecular target: MUC1
Test: ELISA, antibody fixed at 1 ug/ml, coated antigen titrated, absorbance 450 nm

binding: no binding (tested: 1000 ug/ml)
B1: 4C8 monoclonal antibody (antibody, V domains shown)
VH: QVQLQQPGSELVRPGASVKLSCKASGYTFTSYWMHWVKQRPGQGLEWIGNIYPRSGTTNYDGYFKSKATLTVDTSSSTAYMQLSSLTSEDSAVYFCTRSGYDYPFVYWGQGTLVTVSA
VL: QAVVTQESALTTSPGETVTLTCRTSTGAVSIRNYANWVQEKPDHLFTGLIGGTNNRAPGVPARFSGSLIGDKAALTITGAQPEDEAIYFCALLYSNYWVFGGGTKLTVL
notes: Murine hybridoma antibody; also called 4C8 mAb; mAb 4C8

Results are given in words; binding and its absence hold for the method and conditions named.
